Tested on: human blood platelets
Assay: In vitro inhibition of ADP-induced human platelet aggregation (platelet-rich plasma, aggregometer)
Assay type: cell-based
Conditions: read-out: Ia50 (compound concentrations affecting 50% inhibition of aggregation) ± S.E., Table II, n = 5 for (0)I and 6 for all others
Method: Procedure for Determining In Vitro Platelet Aggregation-Inhibitory Activity. Adenosine diphosphate (ADP) was used to induce platelet aggregation and was utilized as the sodium salt. A 10 mM stock solution was prepared fresh before each use in modified Tyrode's buffer and working dilutions were prepared with modified Tyrode's buffer immediately prior to use. The buffer contained NaCl (137.00 mM), KCl (2.70 mM), NaHCO3 (11.90 mM), NaH2 PO4 H2 O (0.36 mM) and glucose (5.60 mM) in redistilled water. Adjustment to pH 7.4 was effected by addition of 1N HCl.
The blood was transferred into plastic centrifuge tubes containing 3.2% sodium citrate (blood/citrate ratio 8:1) and centrifuged at 120Xg for 15 minutes at 23° C., yielding platelet-rich plasma (PRP); platelet-poor-plasma (PPP) was obtained by centrifugation of citrated whole blood at 1,100Xg for 15 min at 23° C. The platelet count of PRP was determined and adjusted to a final count of 300,000 platelet per mm^3 by dilution with autologous PPP. […]
Initially, in each experiment, 0.45-ml aliquots of PRP were placed in siliconized cuvettes and stirred (1,100 rpm) in the aggregometer at 37° C. to ascertain the absence of spontaneous aggregation. […] In each case, the concentration of ADP so determined was used in eliciting aggregation throughout each specific set of aggregometric evaluations. […]

In the case of `CC(C)NCC(O)COc1cccc2ccccc12` (stereo not shown) [Propranolol, reference compound], the IC50 is reported as 175 ± 17 µM.

— patent publication US5219867A, “Platelet aggregation inhibitory agents” (priority 1992, dated 1993)
